PubChem BioAssay AID1347075 (National Center for Advancing Translational Sciences (NCATS), 2019)
Among all 400,000 compounds or so, about 5,500 (1.4%) were called active. This list was built around the results that the source calls inconclusive (neither active nor inactive); the mix of calls is not that of the screen. The call rests on the fitted dose curve; in most records, active means well fitted cell-killing curve with a large enough effect; inconclusive means small, poorly fitted or top-dose-only effect, or effect the other way; inactive means flat fitted curve, though single readings scatter. Where the call is inconclusive, the potency comes from a doubtful curve fit.

experiment: qHTS assay for MDR1-selective chemotherapeutics: Primary screen using the parental adenocarcinoma cell KB-3-1; conditions: KB-3-1 viability, CellTiter-Glo ATP luminescence, 72 h; activity change, negative = cytotoxic: at 46.1 µM (top of the series); further: nearly all actives have a fitted effect of over 60% in size
Method in brief: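 Luminescent ATP read-out (CellTiter-Glo) measures survival of drug-naive KB-3-1 cells after 72 h compound exposure at 37 °C. Titration series was screened from lowest to highest concentration, with DMSO vehicle plates as background controls.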
On the % scale 0 is the no-effect control and ±100 the full control effect; potency means the concentration at half of the fitted maximal effect.

**Q.** With `CCCCCCCCN1C(=O)[C@H](CC(=O)NCCc2ccccc2OC)C[C@@]2(C(=O)OCC)CCC=C12` as the compound, how does the Potency read?
**A.** Its Potency is inconclusive: 20.6 µM [cytotoxic, single point].

**Q.** Which Potency does the source give for `O=C(Nc1cccc(F)c1)C1CCN(S(=O)(=O)c2ccc3[nH]c4c(c3c2)CCCCC4)CC1` here?
**A.** The Potency was inconclusive: 25.9 µM [cytotoxic, single point].

**Q.** For `CCc1ccc(S(=O)(=O)Nc2cccc(-c3ccc(OC)nn3)c2)s1`, which Potency is on record?
**A.** The Potency was inconclusive: 18.4 µM [cytotoxic, single point].

**Q.** With `CN1CCc2c(c3ccccc3n2Cc2ccccc2)C1` as the compound, how does the activity change, negative = cytotoxic read?
**A.** The activity change, negative = cytotoxic was inconclusive: 0%.

**Q.** Which Potency does the source give for `COc1ccccc1CCn1cnc(Cc2ccccc2)c1C(C)C` here?
**A.** Its Potency is inconclusive: 29.1 µM [cytotoxic, single point].

**Q.** For `O=C(/C=C/c1ccc(Cl)cc1Cl)N(Cc1ccc(Cl)cc1)C1CCS(=O)(=O)C1` (configuration not stated), which Potency is on record?
**A.** Its Potency is inconclusive: 29.1 µM [cytotoxic, single point].

**Q.** With `CCOC(=O)c1ccc(NC(=O)c2nc[nH]c2C(=O)N[C@H](C)c2ccccc2)cc1` as the compound, how does the Potency read?
**A.** Its Potency is inconclusive: 29.1 µM [cytotoxic, single point].

**Q.** For `Fc1ccc(C(c2ccc(F)cc2)N2CCN(C/C=C/c3ccccc3)CC2)cc1`, which Potency is on record?
**A.** The Potency was inconclusive: 29.1 µM [cytotoxic, partial curve, poor fit].

**Q.** For `CCc1nc2cccnc2n1-c1ccc(CC(=O)NC(C)CC)cc1` (configuration not stated), which Potency is on record?
**A.** Its Potency is “inactive”.

**Q.** Which Potency does the source give for `COc1cc(OC)cc(-c2c(-c3cccs3)c3cc(-c4cnc(N)nc4)ccc3n2C)c1` here?
**A.** The Potency was inconclusive: 29.1 µM [cytotoxic, single point].

**Q.** Which Potency does the source give for `Nc1ccccc1C(=O)NNC1=C(C(=O)C(F)(F)F)CCC1` here?
**A.** Its Potency is inconclusive: 14.6 µM [cytotoxic, single point].

**Q.** With `CC(C)NC(=O)c1onc(CSc2ccc(C(C)C)cc2)c1C(=O)O` as the compound, how does the Potency read?
**A.** The Potency was inconclusive: 29.1 µM [cytotoxic, single point].

**Q.** Which Potency does the source give for `COc1cccc(NC(=O)c2sc3nc(C)c(C(=O)Nc4ccc(C)cc4C)c(-c4ccc(C)o4)c3c2N)c1` here?
**A.** Its Potency is “inactive”.

**Q.** Which Potency does the source give for `Nc1c(C(=O)CSc2nc3ccccc3o2)c(=O)[nH]c(=O)n1C1CC1` here?
**A.** Its Potency is active: 1.3 µM.

**Q.** For `COc1ccc(/C=C2\Oc3cc(OC(=O)N4CCOCC4)ccc3C2=O)c(OC)c1`, which Potency is on record?
**A.** The Potency was “inactive”.

**Q.** For `CN(C(=O)CN1CCN(c2ccccc2F)CC1)C1CCCc2ccccc21` (configuration not stated), which Potency is on record?
**A.** Its Potency is “inactive”.

**Q.** Which Potency does the source give for `CCc1ccc(S(=O)(=O)N2CCN(c3ccc(Cl)c(Cl)c3)CC2)cc1` here?
**A.** Its Potency is inconclusive: 16.4 µM [cytotoxic, single point].

**Q.** For `Cc1[nH]nc2nc(SCC(=O)NC3CCCCC3)n(-c3ccc(Br)cc3)c(=N)c12`, which Potency is on record?
**A.** The Potency was inconclusive: 23.1 µM [cytotoxic, partial curve, poor fit].

**Q.** With `Cc1ccc(NC(=O)Cn2c(=O)cnc3ccccc32)cc1S(=O)(=O)N1CCCCC1` as the compound, how does the Potency read?
**A.** The Potency was inconclusive: 16.4 µM [cytotoxic, partial curve, poor fit].

**Q.** With `CC1(C)CC(=O)C2=C(C1)c1c(ccc3ccccc13)NC2c1cc([N+](=O)[O-])cc([N+](=O)[O-])c1O` (configuration not stated) as the compound, how does the Potency read?
**A.** Its Potency is “inactive”.

**Q.** For `Cc1sc(NC(=O)c2sc3nc4c(C)cccc4cc3c2N)c(C#N)c1C`, which Potency is on record?
**A.** The Potency was inconclusive: 29.1 µM [cytotoxic, single point].

**Q.** With `CC(C)CCNC1c2ccccc2C(=O)N1Cc1ccccc1` (configuration not stated) as the compound, how does the Potency read?
**A.** Its Potency is “inactive”.

**Q.** For `C[C@@H](C(=O)NCc1ccccc1)[C@@H]1C[C@@]1(C)[C@@H](NC(=O)OCc1ccccc1)c1ccccc1`, which Potency is on record?
**A.** Its Potency is inconclusive: 18.4 µM [cytotoxic, single point].

**Q.** With `COc1cccc(COc2cc3ccccc3nc2C)c1` as the compound, how does the Potency read?
**A.** Its Potency is inconclusive: 5.17 µM [cytotoxic, full curve].

**Q.** Which Potency does the source give for `CCOC(=O)C1CCCN(CC(=O)NC2=Nc3ccccc3N=C(C)C2c2ccccc2)C1` (configuration not stated) here?
**A.** Its Potency is inconclusive: 29.1 µM [cytotoxic, single point].

**Q.** For `Fc1ccccc1-c1csc(=Nc2cccnc2)n1CCCn1ccnc1`, which Potency is on record?
**A.** Its Potency is inconclusive: 29.1 µM [cytotoxic, single point].

**Q.** For `CN(CCCNC(=O)COc1cc(=O)n(C)c2ccccc12)Cc1ccccc1`, which Potency is on record?
**A.** The Potency was inconclusive: 28.2 µM [cytotoxic, partial curve, poor fit].

**Q.** With `NC(=S)N/N=C1\CCOc2ccc(F)cc21` as the compound, how does the Potency read?
**A.** The Potency was inconclusive: 25.9 µM [cytotoxic, partial curve, poor fit].

**Q.** With `O=C1CCCc2nc(N3CCN(C(c4ccccc4)c4ccccc4)CC3)ncc21` as the compound, how does the Potency read?
**A.** Its Potency is inconclusive: 18.4 µM [cytotoxic, single point].

**Q.** Which Potency does the source give for `CC(C)(C)C(=O)Nc1ccc2nc(SCCOc3ccccc3Cl)sc2c1` here?
**A.** The Potency was “inactive”.

**Q.** For `O=C(CNC(=O)c1ccccc1F)N/N=C/c1cccnc1`, which Potency is on record?
**A.** The Potency was “inactive”.

**Q.** With `CCCCNS(=O)(=O)C1CCS(=O)(=O)C1` (configuration not stated) as the compound, how does the Potency read?
**A.** The Potency was inconclusive: 20.6 µM [rising, partial curve, poor fit].

**Q.** With `CNc1cncc(-c2ccc(F)cc2F)n1` as the compound, how does the Potency read?
**A.** Its Potency is “inactive”.

**Q.** With `Clc1ccc(-c2nnc(Sc3nc4ccccc4o3)c3ccccc23)cc1` as the compound, how does the Potency read?
**A.** Its Potency is inconclusive: 7.31 µM [rising, partial curve, poor fit].

**Q.** For `CN(C)c1ccc(C(CNS(=O)(=O)c2ccc(F)cc2)N2CCCC2)cc1` (configuration not stated), which Potency is on record?
**A.** The Potency was “inactive”.

**Q.** Which Potency does the source give for `CCc1cccc(OCC(=O)Nc2ccc(S(=O)(=O)N3CCCC3)cc2)c1` here?
**A.** The Potency was “inactive”.

**Q.** Which Potency does the source give for `COc1ccc(Nc2ncc(C(=O)Nc3cc(Cl)c(OC)cc3OC)c3ccccc23)cc1` here?
**A.** Its Potency is “inactive”.

**Q.** For `CC(=O)N1CCCc2cc(S(=O)(=O)N3CCCC(C(=O)Nc4cccc(F)c4)C3)ccc21` (configuration not stated), which Potency is on record?
**A.** The Potency was inconclusive: 23.1 µM [cytotoxic, single point].

**Q.** Which Potency does the source give for `COc1ccc(C(CC(=O)N2CCCC(C)C2)c2c(OC)cc(OC)c3c(-c4ccccc4)cc(=O)oc23)cc1` (configuration not stated) here?
**A.** The Potency was inconclusive: 16.4 µM [cytotoxic, single point].

**Q.** Which Potency does the source give for `CCCCNC(=S)N(CCCN(C)C)Cc1cc2cc3c(cc2[nH]c1=O)OCO3` here?
**A.** Its Potency is “inactive”.

**Q.** With `Cc1cc(Cl)c2oc(C(=O)N3CCN(c4ccncc4)CC3)c(C)c2c1` as the compound, how does the Potency read?
**A.** Its Potency is inconclusive: 25.9 µM [cytotoxic, single point].

**Q.** For `CC(C)C(N)c1csc(Nc2ccc(S(C)(=O)=O)cc2)n1` (configuration not stated), which Potency is on record?
**A.** The Potency was “inactive”.

**Q.** With `Cc1ccc2c(c1)c1c3n2CCN(C=O)C3CCC1` (configuration not stated) as the compound, how does the Potency read?
**A.** The Potency was inconclusive: 16.4 µM [cytotoxic, single point].

**Q.** For `COc1ccc(S(=O)(=O)N2CCc3ccccc32)cc1C(=O)N1CCN(C=O)CC1`, which Potency is on record?
**A.** Its Potency is “inactive”.

**Q.** For `COc1ccccc1NC(=O)Nc1nnc([C@H]2C[C@H](O)[C@@H](CO)O2)s1`, which Potency is on record?
**A.** The Potency was “inactive”.

**Q.** Which Potency does the source give for `COc1ccc(C(=O)Nc2nnc(Cc3cccs3)s2)cc1OC` here?
**A.** The Potency was inconclusive: 1.84 µM [cytotoxic, full curve].

**Q.** Which Potency does the source give for `COc1ccc(-c2nc(CS(=O)CC(=O)NCc3ccccc3)c(C)o2)cc1OC` (configuration not stated) here?
**A.** The Potency was inconclusive: 5.8 µM [rising, full curve].

**Q.** With `CCc1nnc(NC(=O)c2cccc(C(=O)Nc3nnc(CC)s3)n2)s1` as the compound, how does the Potency read?
**A.** Its Potency is inconclusive: 16.4 µM [cytotoxic, single point].

**Q.** With `CCOc1cc(CNCCc2ccc(S(N)(=O)=O)cc2)ccc1OCc1ccc(Cl)cc1` as the compound, how does the Potency read?
**A.** The Potency was inconclusive: 29.1 µM [cytotoxic, single point].

**Q.** For `O=C(CNC(=O)c1ccccc1Cl)NC1CCN(Cc2ccccc2)CC1`, which Potency is on record?
**A.** The Potency was inconclusive: 23.1 µM [cytotoxic, single point].

**Q.** Which Potency does the source give for `OC1CCCC1NCc1ccnc2cc(Cl)ccc12` (configuration not stated) here?
**A.** The Potency was “inactive”.

**Q.** With `Cc1cccc(CCN2C(N(C)C)=NC[C@@H]2CC(C)C)c1` as the compound, how does the Potency read?
**A.** The Potency was “inactive”.

**Q.** With `O=C1CN=C(Nc2ccccc2Cl)N1Cc1ccc2c(c1)OCO2` as the compound, how does the Potency read?
**A.** Its Potency is “inactive”.

**Q.** Which Potency does the source give for `Cc1ccc(N(Cc2cc(=O)[nH]c3ccccc23)C(=O)CCl)c(C)c1` here?
**A.** Its Potency is active: 18.4 µM.

**Q.** For `COc1ccc(-c2cc([C@H]3[C@H]4C=CC[C@@H](C)[C@@H]4C(=O)N3Cc3ccccc3)ccc2F)cc1`, which Potency is on record?
**A.** The Potency was active: 16.4 µM.

**Q.** With `COC(=O)C1=C(C)N(Cc2ccccc2)C(=NCCc2c[nH]c3ccccc23)N[C@H]1c1ccccc1` as the compound, how does the Potency read?
**A.** The Potency was inconclusive: 29.1 µM [cytotoxic, single point].

**Q.** For `N#CC(C#N)=C1C=CC=CN1/C(=C\c1ccco1)C(=O)c1ccc(Br)cc1`, which Potency is on record?
**A.** The Potency was inconclusive: 3.66 µM [cytotoxic, partial curve, poor fit].

**Q.** With `COc1ccccc1C1c2[nH]c3ccccc3c2C[C@H]2C(=O)N(C3CCN(Cc4ccccc4)CC3)CC(=O)N12` (some centres not stated) as the compound, how does the Potency read?
**A.** Its Potency is inconclusive: 29.1 µM [cytotoxic, single point].

**Q.** With `Cc1ccccc1-n1nnc2c(=O)oc3ccccc3c21` as the compound, how does the Potency read?
**A.** The Potency was inconclusive: 29.1 µM [cytotoxic, single point].

**Q.** With `Cc1ccccc1N(C)S(=O)(=O)c1ccc2[nH]cc(C(=O)NCC3CCCO3)c(=O)c2c1` (configuration not stated) as the compound, how does the Potency read?
**A.** Its Potency is inconclusive: 23.1 µM [cytotoxic, single point].

**Q.** For `CN(C(=O)CSc1nc2ccc(NC(=O)CCc3ccccc3)cc2s1)c1ccccc1`, which Potency is on record?
**A.** Its Potency is inconclusive: 29.1 µM [cytotoxic, single point].

**Q.** For `CCOc1ccc(-c2cc(C(=O)N3CCN(c4cccc(C)c4)C(C)C3)c3ccccc3n2)cc1` (configuration not stated), which Potency is on record?
**A.** Its Potency is inconclusive: 29.1 µM [cytotoxic, single point].

**Q.** With `CCCNC(=O)c1nnsc1S(=O)c1ccc(Cl)cc1` (configuration not stated) as the compound, how does the Potency read?
**A.** Its Potency is inconclusive: 29.1 µM [cytotoxic, single point].

**Q.** With `COc1ccc(-c2nnc3ccc(SCC(=O)Nc4nccs4)nn23)cc1OC` as the compound, how does the Potency read?
**A.** The Potency was inconclusive: 29.1 µM [rising, single point].

**Q.** For `CC(=O)Nc1ccc(C(=O)CN2C(=O)NC3(CCCc4ccccc43)C2=O)c(F)c1` (configuration not stated), which Potency is on record?
**A.** The Potency was inconclusive: 23.1 µM [rising, single point].

**Q.** For `Cc1ccc(/C=N/Nc2nncc(-c3ccccc3)n2)o1`, which Potency is on record?
**A.** The Potency was “inactive”.
